Measured values: ChEMBL document CHEMBL4732199, “Potent and orally bioavailable CDK8 inhibitors: Design, synthesis, structure-activity relationship analysis and biological evaluation” (Eur J Med Chem, 2021)
pIC50: −log10 of the molar value. Converted amounts (≈) assume the structure as drawn.

Chains of the proteins cited; added tags and fusions are not shown. Lines headed by an entry give the natural chain unless they say otherwise; changes in a name come on top.
UniProt P10635, whole entry: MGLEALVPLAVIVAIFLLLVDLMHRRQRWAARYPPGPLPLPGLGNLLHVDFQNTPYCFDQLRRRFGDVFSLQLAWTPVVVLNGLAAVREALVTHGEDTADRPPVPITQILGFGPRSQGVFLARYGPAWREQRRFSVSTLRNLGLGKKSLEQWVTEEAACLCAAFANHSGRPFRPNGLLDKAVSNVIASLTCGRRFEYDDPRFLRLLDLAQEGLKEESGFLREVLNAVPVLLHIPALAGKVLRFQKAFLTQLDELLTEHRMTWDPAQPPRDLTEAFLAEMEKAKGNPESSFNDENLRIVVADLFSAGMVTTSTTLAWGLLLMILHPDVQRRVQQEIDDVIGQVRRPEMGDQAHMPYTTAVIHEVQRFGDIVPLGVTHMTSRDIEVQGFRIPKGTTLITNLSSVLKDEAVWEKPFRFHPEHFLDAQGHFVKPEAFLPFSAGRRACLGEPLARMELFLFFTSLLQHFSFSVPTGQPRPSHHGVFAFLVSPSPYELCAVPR
UniProt P11712, whole entry: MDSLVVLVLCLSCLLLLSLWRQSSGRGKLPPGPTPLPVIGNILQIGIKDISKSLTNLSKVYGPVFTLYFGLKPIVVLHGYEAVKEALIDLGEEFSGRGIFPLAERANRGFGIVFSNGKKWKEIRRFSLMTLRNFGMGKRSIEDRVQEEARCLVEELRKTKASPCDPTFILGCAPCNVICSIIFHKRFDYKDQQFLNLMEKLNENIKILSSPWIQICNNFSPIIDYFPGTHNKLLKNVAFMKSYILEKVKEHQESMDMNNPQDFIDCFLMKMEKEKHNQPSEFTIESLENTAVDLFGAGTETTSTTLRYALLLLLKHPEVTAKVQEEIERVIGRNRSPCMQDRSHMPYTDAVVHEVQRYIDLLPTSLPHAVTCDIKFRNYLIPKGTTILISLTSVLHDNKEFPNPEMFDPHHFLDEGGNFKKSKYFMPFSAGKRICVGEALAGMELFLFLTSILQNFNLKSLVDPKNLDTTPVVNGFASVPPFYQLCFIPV
UniProt P33261, whole entry: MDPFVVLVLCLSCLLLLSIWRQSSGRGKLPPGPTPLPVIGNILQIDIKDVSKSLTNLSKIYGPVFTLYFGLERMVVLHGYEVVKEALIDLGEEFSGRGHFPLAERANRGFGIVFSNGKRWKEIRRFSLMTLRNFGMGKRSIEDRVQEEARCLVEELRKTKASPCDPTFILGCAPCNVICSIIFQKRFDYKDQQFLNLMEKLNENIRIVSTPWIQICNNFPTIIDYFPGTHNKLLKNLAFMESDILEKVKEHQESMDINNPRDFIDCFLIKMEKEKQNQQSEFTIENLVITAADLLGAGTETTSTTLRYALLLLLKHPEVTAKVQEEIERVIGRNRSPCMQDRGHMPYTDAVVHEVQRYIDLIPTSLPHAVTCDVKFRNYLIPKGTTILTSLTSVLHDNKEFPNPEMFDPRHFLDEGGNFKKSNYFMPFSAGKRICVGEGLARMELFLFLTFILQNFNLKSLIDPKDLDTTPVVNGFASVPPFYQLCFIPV
UniProt Q12809: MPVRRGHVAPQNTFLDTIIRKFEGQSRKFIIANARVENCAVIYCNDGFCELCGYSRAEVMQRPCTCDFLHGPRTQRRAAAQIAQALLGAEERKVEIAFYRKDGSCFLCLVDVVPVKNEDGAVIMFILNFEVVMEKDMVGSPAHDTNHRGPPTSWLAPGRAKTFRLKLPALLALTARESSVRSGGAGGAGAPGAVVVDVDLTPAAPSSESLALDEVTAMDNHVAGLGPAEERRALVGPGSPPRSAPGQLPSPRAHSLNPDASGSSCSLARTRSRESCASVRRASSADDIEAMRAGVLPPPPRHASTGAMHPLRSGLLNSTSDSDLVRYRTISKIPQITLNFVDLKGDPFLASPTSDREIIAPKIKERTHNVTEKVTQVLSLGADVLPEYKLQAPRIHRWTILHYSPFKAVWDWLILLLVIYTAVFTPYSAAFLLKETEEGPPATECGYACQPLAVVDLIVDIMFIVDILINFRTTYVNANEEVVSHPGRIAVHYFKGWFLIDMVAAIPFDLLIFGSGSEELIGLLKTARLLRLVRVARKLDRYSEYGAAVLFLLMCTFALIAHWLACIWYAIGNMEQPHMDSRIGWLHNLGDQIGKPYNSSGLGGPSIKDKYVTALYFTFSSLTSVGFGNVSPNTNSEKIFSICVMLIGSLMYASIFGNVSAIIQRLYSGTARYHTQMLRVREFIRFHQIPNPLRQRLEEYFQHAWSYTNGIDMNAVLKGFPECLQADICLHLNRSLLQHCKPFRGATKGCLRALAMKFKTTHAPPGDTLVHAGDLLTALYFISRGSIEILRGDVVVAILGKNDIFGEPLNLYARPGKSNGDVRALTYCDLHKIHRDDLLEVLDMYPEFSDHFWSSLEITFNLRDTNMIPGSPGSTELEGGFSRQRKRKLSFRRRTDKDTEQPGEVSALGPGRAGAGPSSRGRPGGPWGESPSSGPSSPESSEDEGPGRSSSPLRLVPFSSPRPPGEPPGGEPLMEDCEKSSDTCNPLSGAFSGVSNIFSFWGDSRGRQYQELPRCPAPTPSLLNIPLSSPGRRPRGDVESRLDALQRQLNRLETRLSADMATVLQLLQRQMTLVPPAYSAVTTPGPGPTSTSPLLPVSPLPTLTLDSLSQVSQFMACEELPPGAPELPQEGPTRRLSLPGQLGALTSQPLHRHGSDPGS

Experiments:
Cytochrome P450 2D6 = Cytochrome P450 2D6 (Homo sapiens, UniProt P10635)
physchem [1] = settings: buffer
physchem [2] = settings: octanol/water, pH 7.4
Cytochrome P450 2C9 = Cytochrome P450 2C9 (Homo sapiens, UniProt P11712)
in vitro [3] = settings: human, Caco-2
in vitro [4] = settings: human, Caco-2; remark: listed apart in the source
Cytochrome P450 2C19 = Cytochrome P450 2C19 (Homo sapiens, UniProt P33261)
[5] = biological target: Voltage-gated inwardly rectifying potassium channel KCNH2 (Homo sapiens, UniProt Q12809); assay: Inhibition of human ERG expressed in CHO cells

Row | SMILES | pIC50 (Cytochrome P450 2D6) | solubility kinetic (physchem [1]) [µM] | logD (physchem [2]) | pIC50 (Cytochrome P450 2C9) | Papp B→A at 2 h, 10 µM (in vitro [3]) [×10⁻⁶ cm/s] | Papp A→B at 2 h, 10 µM (in vitro [4]) [×10⁻⁶ cm/s] | pIC50 (Cytochrome P450 2C19) | pIC50 [5]
1 | O=C1NCCC12CCN(c1c(Cl)cncc1-c1cc3ccccc3o1)CC2 | < 4.60 | 10 (≈ 3.82 µg/mL) | 4.21 | < 4.60 | 23.4 | 22.9 | < 4.60 | 
2 | O=C1NCCC12CCN(c1c(Cl)cncc1-c1cc3ccccc3s1)CC2 | < 4.60 | < 20 | > 4 | < 4.60 | 19.5 | 20.4 | < 4.60 | 4.83
